According to PMC7078148:
No constants are given. Whether binding was seen depends on the method and setting. Some entries that bind do so weakly or less than the wild type. Where a sequence is shown, tags or fusion partners need not be part of it.

The chains behind the UniProt entries cited, without tags or fusion partners. Residues count along the entry.
UniProt P30405, residues 30-207: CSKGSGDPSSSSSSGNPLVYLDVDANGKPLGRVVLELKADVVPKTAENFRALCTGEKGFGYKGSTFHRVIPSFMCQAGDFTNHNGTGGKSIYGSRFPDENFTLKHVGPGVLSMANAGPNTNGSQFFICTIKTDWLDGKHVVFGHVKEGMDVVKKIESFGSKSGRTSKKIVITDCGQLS

Target: human full length cyclophilin D protein (His tag) (human) (UniProt P30405)
Assay: co-IP; mix of the two recombinant proteins, 20 µg/ml each in PBS, 2 h at room temperature; precipitated with anti-17β-HSD10 or anti-cypD antibody and Protein A-sepharose; immunoblot for the other protein; both purified

B1: human full length recombinant 17β-hydroxysteroid dehydrogenase type 10 protein (His tag) (enzyme, UniProt Q99714 1-261)
chain: MAAACRSVKGLVAVITGGASGLGLATAERLVGQGASAVLLDLPNSGGEAQAKKLGNNCVFAPADVTSEKDVQTALALAKGKFGRVDVAVNCAGIAVASKTYNLKKGQTHTLEDFQRVLDVNLMGTFNVIRLVAGEMGQNEPDQGGQRGVIINTASVAAFEGQVGQAAYSASKGGIVGMTLPIARDLAPIGIRVMTIAPGLFGTPLLTSLPEKVCNFLASQVPFPSRLGDPAEYAHLVQAIIENPFLNGEVIRLDGAIRMQP
With B1 the binding was “binds”.
